# Measurements taken from publication PMC4466232.
# B1: MVM capsid protein VP1 (stably expressed in mouse fibroblasts, MF-VPs) (protein, UniProt P03137 1-729)
# chain: MAPPAKRAKRGWVPPGYKYLGPGNSLDQGEPTNPSDAAAKEHDEAYDQYIKSGKNPYLYFSAADQRFIDQTKDAKDWGGKVGHYFFRTKRAFAPKLATDSEPGTSGVSRAGKRTRPPAYIFINQARAKKKLTSSAAQQSSQTMSDGTSQPDSGNAVHSAARVERAADGPGGSGGGGSGGGGVGVSTGSYDNQTHYRFLGDGWVEITALATRLVHLNMPKSENYCRIRVHNTTDTSVKGNMAKDDAHEQIWTPWSLVDANAWGVWLQPSDWQYICNTMSQLNLVSLDQEIFNVVLKTVTEQDLGGQAIKIYNNDLTACMMVAVDSNNILPYTPAANSMETLGFYPWKPTIASPYRYYFCVDRDLSVTYENQEGTVEHNVMGTPKGMNSQFFTIENTQQITLLRTGDEFATGTYYFDTNSVKLTHTWQTNRQLGQPPLLSTFPEADTDAGTLTAQGSRHGTTQMGVNWVSEAIRTRPAQVGFCQPHNDFEASRAGPFAAPKVPADITQGVDKEANGSVRYSYGKQHGENWASHGPAPERYTWDETSFGSGRDTKDGFIQSAPLVVPPPLNGILTNANPIGTKNDIHFSNVFNSYGPLTAFSHPSPVYPQGQIWDKELDLEHKPRLHITAPFVCKNNAPGQMLVRLGPNLTDQYDPNGATLSRIVTYGTFFWKGKLTMRAKLRANTTWNPVYQVSAEDNGNSYMSVTKWLPTATGNMQSVPLITRPVARNTY
# Molecular target: MVM capsid protein VP2 (stably expressed in mouse fibroblasts, MF-VPs) (Minute Virus of Mice, prototype strain (MVMp))
# Experiment: cross-linking; clarified cell homogenates in HNEM buffer (50 mM Hepes pH 8.0, 150 mM NaCl, 2 mM MgCl2, 1 mM EDTA) cross-linked with 10 mM dimethyl suberimidate (DMS), 10 min at 20°C; 5% SDS-PAGE and Western blot with the α-VPs antibody; MF-VPs quiescent by serum starvation (G0) or 8 h after serum addition (S); HF-VPs at hours after release of density arrest (G1)
binder,measurement,value
B1,binding,binds

# Results are given in words; binding and its absence hold for the method and conditions named. Binding seen in cells or lysates may run through a third protein. Binding calls can cover weak binding; strength is not graded here.
